Experimental data from the supplement of paper PMC8728848.
Some of the results follow.

Experiments:
Assay in all cases: glycan array binding signal (z-score within array); higher = stronger binding
Settings in all cases: glycan notation: IUPAC condensed, linker removed
[1] = molecular target: Neu5Ac(a2-6)Gal(b1-4)GlcNAc(b1-2)Man(a1-6)[GlcNAc(b1-2)Man(a1-3)]Man(b1-4)GlcNAc(b1-4)GlcNAc
How it was run: (§1)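 The Consortium for Functional Glycomics database supplied 3228 glycan arrays, of which those lacking an available protein sequence were dropped. The binding signal, a within-array Z-score, was averaged across arrays of the same protein sequence and across linkers. Negative scores can be read as non-binding.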

[2] = molecular target: Neu5Ac(a2-6)Gal(b1-4)GlcNAc(b1-2)Man(a1-6)[Man(a1-3)]Man(b1-4)GlcNAc(b1-4)GlcNAc
How it was run: as §1

[3] = molecular target: Neu5Ac(a2-6)Gal(b1-4)GlcNAc(b1-2)[Neu5Ac(a2-6)Gal(b1-4)GlcNAc(b1-4)]Man(a1-3)[GlcNAc(b1-4)][Neu5Ac(a2-6)Gal(b1-4)GlcNAc(b1-2)[Neu5Ac(a2-6)Gal(b1-4)GlcNAc(b1-6)]Man(a1-6)]Man(b1-4)GlcNAc(b1-4)GlcNAc
How it was run: as §1

[4] = molecular target: Neu5Ac(a2-6)Gal(b1-4)GlcNAc(b1-2)[Neu5Ac(a2-6)Gal(b1-4)GlcNAc(b1-4)]Man(a1-3)[GlcNAc(b1-4)][Neu5Ac(a2-6)Gal(b1-4)GlcNAc(b1-4)Man(a1-6)]Man(b1-4)GlcNAc(b1-4)GlcNAc
How it was run: as §1

[5] = molecular target: Neu5Ac(a2-6)Gal(b1-4)GlcNAc(b1-2)[Neu5Ac(a2-6)Gal(b1-4)GlcNAc(b1-6)]Man(a1-6)[Neu5Ac(a2-6)Gal(b1-4)GlcNAc(b1-2)Man(a1-3)][GlcNAc(b1-4)]Man(b1-4)GlcNAc(b1-4)GlcNAc
How it was run: as §1

[6] = molecular target: Neu5Ac(a2-6)Gal(b1-4)GlcNAc(b1-3)Gal(b1-3)GlcNAc
How it was run: as §1

[7] = molecular target: Neu5Ac(a2-6)Gal(b1-4)GlcNAc(b1-3)Gal(b1-4)GlcNAc
How it was run: as §1

[8] = molecular target: Neu5Ac(a2-6)Gal(b1-4)GlcNAc(b1-3)Gal(b1-4)GlcNAc(b1-2)Man(a1-3)[Neu5Ac(a2-6)Gal(b1-4)GlcNAc(b1-3)Gal(b1-4)GlcNAc(b1-2)Man(a1-6)]GalNAc
How it was run: as §1

[9] = molecular target: Neu5Ac(a2-6)Gal(b1-4)GlcNAc(b1-3)Gal(b1-4)GlcNAc(b1-3)Gal(b1-4)GlcNAc
How it was run: as §1

[10] = molecular target: Neu5Ac(a2-6)Gal(b1-4)GlcNAc(b1-3)Gal(b1-4)GlcNAc(b1-3)Gal(b1-4)GlcNAc(b1-2)Man(a1-3)[Neu5Ac(a2-6)Gal(b1-4)GlcNAc(b1-3)Gal(b1-4)GlcNAc(b1-3)Gal(b1-4)GlcNAc(b1-2)Man(a1-6)]GalNAc
How it was run: as §1

[11] = molecular target: Neu5Ac(a2-6)Gal(b1-4)GlcNAc(b1-3)Gal(b1-4)GlcNAc(b1-3)GalNAc
How it was run: as §1

[12] = molecular target: Neu5Ac(a2-6)Gal(b1-4)GlcNAc(b1-3)Gal(b1-4)GlcNAc(b1-3)[Neu5Ac(a2-6)Gal(b1-4)GlcNAc(b1-3)Gal(b1-4)GlcNAc(b1-6)]GalNAc
How it was run: as §1

[13] = molecular target: Neu5Ac(a2-6)Gal(b1-4)GlcNAc(b1-3)Gal(b1-4)GlcNAc(b1-6)[Gal(b1-3)]GalNAc
How it was run: as §1

[14] = molecular target: Neu5Ac(a2-6)Gal(b1-4)GlcNAc(b1-3)Gal(b1-4)[Fuc(a1-3)]GlcNAc(b1-3)Gal(b1-4)[Fuc(a1-3)]GlcNAc
How it was run: as §1

[15] = molecular target: Neu5Ac(a2-6)Gal(b1-4)GlcNAc(b1-3)GalNAc
How it was run: as §1

[16] = molecular target: Neu5Ac(a2-6)Gal(b1-4)GlcNAc(b1-3)[Neu5Ac(a2-6)Gal(b1-4)GlcNAc(b1-6)]GalNAc
How it was run: as §1

[17] = molecular target: Neu5Ac(a2-6)Gal(b1-4)GlcNAc(b1-6)GalNAc
How it was run: as §1

[18] = molecular target: Neu5Ac(a2-6)Gal(b1-4)GlcNAc(b1-6)[Gal(b1-3)GlcNAc(b1-3)]Gal(b1-4)Glc
How it was run: as §1

[19] = molecular target: Neu5Ac(a2-6)Gal(b1-4)GlcNAc(b1-6)[Gal(b1-3)]GalNAc
How it was run: as §1

[20] = molecular target: Neu5Ac(a2-6)Gal(b1-4)GlcNAc6S
How it was run: as §1

Neu5Ac(a2-6)GalNAc = molecular target: Neu5Ac(a2-6)GalNAc
How it was run: as §1

[21] = molecular target: Neu5Ac(a2-6)GalNAc(b1-4)GlcNAc
How it was run: as §1

[22] = molecular target: Neu5Ac(a2-6)GalNAc(b1-4)GlcNAc6S
How it was run: as §1

[23] = molecular target: Neu5Ac(a2-6)GlcNAc(b1-4)GlcNAc
How it was run: as §1

[24] = molecular target: Neu5Ac(a2-6)GlcNAc(b1-4)GlcNAc(b1-4)GlcNAc
How it was run: as §1

Neu5Ac(a2-8)Neu5Ac = molecular target: Neu5Ac(a2-8)Neu5Ac
How it was run: as §1

[25] = molecular target: Neu5Ac(a2-8)Neu5Ac(a2-3)Gal(b1-3)GalNAc(b1-4)[Neu5Ac(a2-3)]Gal(b1-4)Glc
How it was run: as §1

[26] = molecular target: Neu5Ac(a2-8)Neu5Ac(a2-3)Gal(b1-3)GalNAc(b1-4)[Neu5Ac(a2-8)Neu5Ac(a2-3)]Gal(b1-4)Glc
How it was run: as §1

[27] = molecular target: Neu5Ac(a2-8)Neu5Ac(a2-3)Gal(b1-4)Glc
How it was run: as §1

[28] = molecular target: Neu5Ac(a2-8)Neu5Ac(a2-3)Gal(b1-4)GlcNAc
How it was run: as §1

[29] = molecular target: Neu5Ac(a2-8)Neu5Ac(a2-3)[Gal(b1-3)GalNAc(b1-4)]Gal(b1-4)Glc
How it was run: as §1

[30] = molecular target: Neu5Ac(a2-8)Neu5Ac(a2-3)[GalNAc(b1-4)]Gal(b1-4)Glc
How it was run: as §1

[31] = molecular target: Neu5Ac(a2-8)Neu5Ac(a2-8)Neu5Ac
How it was run: as §1

[32] = molecular target: Neu5Ac(a2-8)Neu5Ac(a2-8)Neu5Ac(a2-3)Gal(b1-4)Glc
How it was run: as §1

[33] = molecular target: Neu5Ac(a2-8)Neu5Ac(a2-8)Neu5Ac(a2-3)[Gal(b1-3)GalNAc(b1-4)]Gal(b1-4)Glc
How it was run: as §1

[34] = molecular target: Neu5Ac(a2-8)Neu5Ac(a2-8)Neu5Ac(a2-3)[GalNAc(b1-4)]Gal(b1-4)Glc
How it was run: as §1

[35] = molecular target: Neu5Ac(a2-8)Neu5Ac(a2-8)Neu5Ac(a2-8)Neu5Ac(a2-3)[GalNAc(b1-4)]Gal(b1-4)Glc
How it was run: as §1

[36] = molecular target: Neu5Ac(a2-8)Neu5Gc(a2-3)Gal(b1-4)GlcNAc
How it was run: as §1

[37] = molecular target: Neu5Ac(b2-6)Gal(b1-4)GlcNAc
How it was run: as §1

Neu5Ac(b2-6)GalNAc = molecular target: Neu5Ac(b2-6)GalNAc
How it was run: as §1

[38] = molecular target: Neu5Ac9Ac(a2-3)Gal(b1-3)GlcNAc
How it was run: as §1

[39] = molecular target: Neu5Ac9Ac(a2-3)Gal(b1-4)GlcNAc
How it was run: as §1

[40] = molecular target: Neu5Ac9Ac(a2-6)Gal(b1-4)GlcNAc
How it was run: as §1

[41] = molecular target: Neu5Gc(a2-3)Gal(b1-3)GlcNAc
How it was run: as §1

[42] = molecular target: Neu5Gc(a2-3)Gal(b1-3)[Fuc(a1-4)]GlcNAc
How it was run: as §1

Neu5Gc(a2-3)Gal(b1-4)Glc = molecular target: Neu5Gc(a2-3)Gal(b1-4)Glc
How it was run: as §1

[43] = molecular target: Neu5Gc(a2-3)Gal(b1-4)GlcNAc
How it was run: as §1

[44] = molecular target: Neu5Gc(a2-3)Gal(b1-4)GlcNAc(b1-3)Gal(b1-4)GlcNAc(b1-2)Man(a1-3)[Neu5Gc(a2-3)Gal(b1-4)GlcNAc(b1-3)Gal(b1-4)GlcNAc(b1-2)Man(a1-6)]Man(b1-4)GlcNAc(b1-4)GlcNAc
How it was run: as §1

[45] = molecular target: Neu5Gc(a2-3)Gal(b1-4)[Fuc(a1-3)]GlcNAc
How it was run: as §1

[46] = molecular target: Neu5Gc(a2-6)Gal(b1-4)GlcNAc
How it was run: as §1

Neu5Gc(a2-6)GalNAc = molecular target: Neu5Gc(a2-6)GalNAc
How it was run: as §1

[47] = molecular target: Neu5Gc(a2-8)Neu5Ac(a2-3)Gal(b1-4)GlcNAc
How it was run: as §1

[48] = molecular target: Neu5Gc(a2-8)Neu5Gc(a2-3)Gal(b1-4)GlcNAc
How it was run: as §1

[49] = molecular target: Neu5Gc(a2-8)Neu5Gc(a2-3)Gal(b1-4)GlcNAc(b1-3)Gal(b1-4)GlcNAc
How it was run: as §1

[50] = molecular target: Neu5Gc(a2-8)Neu5Gc(a2-6)Gal(b1-4)GlcNAc
How it was run: as §1

[51] = molecular target: Neu5Gc(b2-6)Gal(b1-4)GlcNAc
How it was run: as §1

B1: Gal 12 (Homo sapiens), Q96DT0 (protein)
chain: MSQPSGGRAPGTRIYSWSCPTVMSPGEKLDPIPDSFILQPPVFHPVVPYVTTIFGGLHAGKMVMLQGVVPLDAHRFQVDFQCGCSLCPRPDIAFHFNPRFHTTKPHVICNTLHGGRWQREARWPHLALRRGSSFLILFLFGNEEVKVSVNGQHFLHFRYRLPLSHVDTLGIFGDILVEAVGFLNINPFVEGSREYPAGHPFLLMSPRLEVPCSHALPQGLSPGQVIIVRGLVLQEPKHFTVSLRDQAAHAPVTLRASFADRTLAWISRWGQKKLISAPFLFYPQRFFEVLLLFQEGGLKLALNGQGLGATSMNQQALEQLRELRISGSVQLYCVHS
glycan array binding signal (z-score) [1]: -0.369 | glycan array binding signal (z-score) [2]: -0.31 | glycan array binding signal (z-score) [3]: 0.895 | glycan array binding signal (z-score) [4]: 0.922 | glycan array binding signal (z-score) [5]: -1.1 | glycan array binding signal (z-score) [6]: 0.218 | glycan array binding signal (z-score) [7]: -0.893 | glycan array binding signal (z-score) [8]: 0.229 | glycan array binding signal (z-score) [9]: -0.153 | glycan array binding signal (z-score) [10]: 1.05 | glycan array binding signal (z-score) [11]: -0.832 | glycan array binding signal (z-score) [12]: -0.48 | glycan array binding signal (z-score) [13]: -1.34 | glycan array binding signal (z-score) [14]: 1.13 | glycan array binding signal (z-score) [15]: 0.153 | glycan array binding signal (z-score) [16]: -0.362 | glycan array binding signal (z-score) [17]: -1.31 | glycan array binding signal (z-score) [18]: -1.1 | glycan array binding signal (z-score) [19]: -0.246 | glycan array binding signal (z-score) [20]: -0.163 | glycan array binding signal (z-score) (Neu5Ac(a2-6)GalNAc): -0.375 | glycan array binding signal (z-score) [21]: -0.032 | glycan array binding signal (z-score) [22]: -0.644 | glycan array binding signal (z-score) [23]: -0.842 | glycan array binding signal (z-score) [24]: 0.332 | glycan array binding signal (z-score) (Neu5Ac(a2-8)Neu5Ac): -0.644 | glycan array binding signal (z-score) [25]: -0.299 | glycan array binding signal (z-score) [26]: 0.155 | glycan array binding signal (z-score) [27]: 0.311 | glycan array binding signal (z-score) [28]: -0.035 | glycan array binding signal (z-score) [29]: 0.301 | glycan array binding signal (z-score) [30]: -0.207 | glycan array binding signal (z-score) [31]: 0.004 | glycan array binding signal (z-score) [32]: -0.275 | glycan array binding signal (z-score) [33]: 0.98 | glycan array binding signal (z-score) [34]: 0.342 | glycan array binding signal (z-score) [35]: 0.265 | glycan array binding signal (z-score) [36]: 0.068 | glycan array binding signal (z-score) [37]: -0.611 | glycan array binding signal (z-score) (Neu5Ac(b2-6)GalNAc): -0.652 | glycan array binding signal (z-score) [38]: -0.24 | glycan array binding signal (z-score) [39]: 0.03 | glycan array binding signal (z-score) [40]: 0.001 | glycan array binding signal (z-score) [41]: -0.108 | glycan array binding signal (z-score) [42]: 0.51 | glycan array binding signal (z-score) (Neu5Gc(a2-3)Gal(b1-4)Glc): -0.468 | glycan array binding signal (z-score) [43]: 0.142 | glycan array binding signal (z-score) [44]: -0.256 | glycan array binding signal (z-score) [45]: 0.879 | glycan array binding signal (z-score) [46]: -0.169 | glycan array binding signal (z-score) (Neu5Gc(a2-6)GalNAc): -0.417 | glycan array binding signal (z-score) [47]: -0.202 | glycan array binding signal (z-score) [48]: -0.454 | glycan array binding signal (z-score) [49]: -0.745 | glycan array binding signal (z-score) [50]: 0.282 | glycan array binding signal (z-score) [51]: -0.218
